From the supplement of paper PMC12823440, “Inhibitors supercharge kinase turnover through native proteolytic circuits” (Nature, 2025)
Some of the results follow. Hit calls seldom repeat between salt and free forms of one compound.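 In K562 cells expressing nanoluciferase-fused kinases, luminescence was recorded at 4 h intervals between 2 and 18 h, normalized as percent of control with DMSO at 100% and a positive control at 0%. A significant (2 sigma) signal drop marks a time point as decreased. The authors' rule for a hit is not shown and takes in more than the number of time points.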

Chains of the proteins cited; added tags and fusions are not shown. Lines headed by an entry give the natural chain unless they say otherwise; changes in a name come on top.
UniProt P36888, whole entry: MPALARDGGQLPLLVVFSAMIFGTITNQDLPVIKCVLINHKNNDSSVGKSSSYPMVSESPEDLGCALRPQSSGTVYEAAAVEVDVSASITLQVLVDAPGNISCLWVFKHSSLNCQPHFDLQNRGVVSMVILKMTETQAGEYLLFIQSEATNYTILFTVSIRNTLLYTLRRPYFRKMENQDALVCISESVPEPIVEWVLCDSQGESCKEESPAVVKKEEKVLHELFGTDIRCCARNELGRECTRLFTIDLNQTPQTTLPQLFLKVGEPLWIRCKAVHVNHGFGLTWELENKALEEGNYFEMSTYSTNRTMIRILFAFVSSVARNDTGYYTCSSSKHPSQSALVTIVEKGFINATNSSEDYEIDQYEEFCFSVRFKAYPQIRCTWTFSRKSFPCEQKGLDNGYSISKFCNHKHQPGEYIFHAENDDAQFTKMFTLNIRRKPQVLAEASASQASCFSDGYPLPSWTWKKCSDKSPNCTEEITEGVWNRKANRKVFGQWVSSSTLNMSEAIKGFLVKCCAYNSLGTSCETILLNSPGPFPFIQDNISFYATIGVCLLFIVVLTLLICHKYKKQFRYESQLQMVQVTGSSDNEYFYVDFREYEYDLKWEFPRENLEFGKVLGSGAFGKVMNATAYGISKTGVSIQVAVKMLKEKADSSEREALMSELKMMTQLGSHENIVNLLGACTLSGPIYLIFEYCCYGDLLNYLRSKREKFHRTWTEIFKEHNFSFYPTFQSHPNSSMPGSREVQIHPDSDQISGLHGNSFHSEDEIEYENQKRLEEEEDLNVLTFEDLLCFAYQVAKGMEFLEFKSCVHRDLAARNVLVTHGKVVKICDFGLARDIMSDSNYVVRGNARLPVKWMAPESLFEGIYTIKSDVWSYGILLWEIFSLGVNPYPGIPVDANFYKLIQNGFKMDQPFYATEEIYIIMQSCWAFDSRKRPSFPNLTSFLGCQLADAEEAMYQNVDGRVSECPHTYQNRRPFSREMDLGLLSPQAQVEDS
UniProt P06241, whole entry, looked up: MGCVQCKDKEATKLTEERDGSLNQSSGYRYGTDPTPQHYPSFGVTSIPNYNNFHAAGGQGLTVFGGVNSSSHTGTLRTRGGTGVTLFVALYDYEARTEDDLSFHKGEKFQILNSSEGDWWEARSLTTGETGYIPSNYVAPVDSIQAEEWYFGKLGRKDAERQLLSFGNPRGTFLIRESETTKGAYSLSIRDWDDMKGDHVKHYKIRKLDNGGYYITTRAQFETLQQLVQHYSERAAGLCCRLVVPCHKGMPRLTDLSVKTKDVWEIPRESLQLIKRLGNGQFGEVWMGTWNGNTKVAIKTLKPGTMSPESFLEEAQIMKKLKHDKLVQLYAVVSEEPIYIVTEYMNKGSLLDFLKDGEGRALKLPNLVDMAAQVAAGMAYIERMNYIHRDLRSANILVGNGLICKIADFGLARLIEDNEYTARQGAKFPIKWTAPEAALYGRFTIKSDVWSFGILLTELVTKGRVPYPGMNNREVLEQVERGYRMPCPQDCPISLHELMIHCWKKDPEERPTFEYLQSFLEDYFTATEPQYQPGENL
UniProt P49840: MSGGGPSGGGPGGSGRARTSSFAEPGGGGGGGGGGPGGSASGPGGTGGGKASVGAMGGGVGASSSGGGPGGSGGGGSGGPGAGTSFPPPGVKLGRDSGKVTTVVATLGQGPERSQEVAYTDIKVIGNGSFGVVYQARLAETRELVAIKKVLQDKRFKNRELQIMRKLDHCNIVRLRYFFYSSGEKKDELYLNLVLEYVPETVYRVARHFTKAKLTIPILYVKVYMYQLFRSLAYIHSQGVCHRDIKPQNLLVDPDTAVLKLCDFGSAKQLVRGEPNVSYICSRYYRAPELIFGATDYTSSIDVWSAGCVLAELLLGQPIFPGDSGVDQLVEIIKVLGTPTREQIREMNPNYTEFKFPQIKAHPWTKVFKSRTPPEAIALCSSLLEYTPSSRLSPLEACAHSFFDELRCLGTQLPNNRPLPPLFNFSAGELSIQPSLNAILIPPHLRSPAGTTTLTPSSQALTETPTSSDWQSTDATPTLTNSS
UniProt P53667: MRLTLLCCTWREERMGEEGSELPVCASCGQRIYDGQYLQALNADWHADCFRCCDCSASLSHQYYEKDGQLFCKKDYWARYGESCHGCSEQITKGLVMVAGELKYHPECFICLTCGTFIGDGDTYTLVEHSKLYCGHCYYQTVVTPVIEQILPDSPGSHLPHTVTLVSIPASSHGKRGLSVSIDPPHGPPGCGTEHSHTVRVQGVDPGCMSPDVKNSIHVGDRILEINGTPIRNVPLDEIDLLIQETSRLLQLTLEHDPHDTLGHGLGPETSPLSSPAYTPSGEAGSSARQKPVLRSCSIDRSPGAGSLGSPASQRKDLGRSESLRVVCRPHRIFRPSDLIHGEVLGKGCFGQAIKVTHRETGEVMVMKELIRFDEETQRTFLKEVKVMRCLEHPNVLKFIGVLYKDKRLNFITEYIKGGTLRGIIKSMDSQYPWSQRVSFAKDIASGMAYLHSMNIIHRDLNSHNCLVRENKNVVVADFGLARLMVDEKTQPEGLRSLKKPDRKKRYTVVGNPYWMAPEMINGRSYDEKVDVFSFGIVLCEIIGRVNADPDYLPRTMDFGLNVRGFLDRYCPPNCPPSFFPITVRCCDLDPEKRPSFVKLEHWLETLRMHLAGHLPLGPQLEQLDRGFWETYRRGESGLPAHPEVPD
UniProt P53671: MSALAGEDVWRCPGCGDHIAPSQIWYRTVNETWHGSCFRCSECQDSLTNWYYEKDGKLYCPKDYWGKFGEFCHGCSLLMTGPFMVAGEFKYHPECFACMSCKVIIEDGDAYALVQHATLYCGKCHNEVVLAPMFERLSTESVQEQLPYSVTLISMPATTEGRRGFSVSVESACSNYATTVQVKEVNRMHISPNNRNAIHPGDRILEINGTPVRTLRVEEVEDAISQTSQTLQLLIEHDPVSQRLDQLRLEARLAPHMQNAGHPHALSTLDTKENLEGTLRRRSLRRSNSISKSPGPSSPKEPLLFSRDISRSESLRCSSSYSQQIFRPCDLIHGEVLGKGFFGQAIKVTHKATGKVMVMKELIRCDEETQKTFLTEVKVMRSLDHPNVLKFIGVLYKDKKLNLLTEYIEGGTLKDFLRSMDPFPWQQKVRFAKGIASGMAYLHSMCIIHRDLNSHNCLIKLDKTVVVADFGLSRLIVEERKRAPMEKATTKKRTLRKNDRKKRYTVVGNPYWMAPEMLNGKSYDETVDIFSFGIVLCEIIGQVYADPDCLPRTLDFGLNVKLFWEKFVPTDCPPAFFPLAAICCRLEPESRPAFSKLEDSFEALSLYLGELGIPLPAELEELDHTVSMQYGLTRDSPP
UniProt Q8IWU2: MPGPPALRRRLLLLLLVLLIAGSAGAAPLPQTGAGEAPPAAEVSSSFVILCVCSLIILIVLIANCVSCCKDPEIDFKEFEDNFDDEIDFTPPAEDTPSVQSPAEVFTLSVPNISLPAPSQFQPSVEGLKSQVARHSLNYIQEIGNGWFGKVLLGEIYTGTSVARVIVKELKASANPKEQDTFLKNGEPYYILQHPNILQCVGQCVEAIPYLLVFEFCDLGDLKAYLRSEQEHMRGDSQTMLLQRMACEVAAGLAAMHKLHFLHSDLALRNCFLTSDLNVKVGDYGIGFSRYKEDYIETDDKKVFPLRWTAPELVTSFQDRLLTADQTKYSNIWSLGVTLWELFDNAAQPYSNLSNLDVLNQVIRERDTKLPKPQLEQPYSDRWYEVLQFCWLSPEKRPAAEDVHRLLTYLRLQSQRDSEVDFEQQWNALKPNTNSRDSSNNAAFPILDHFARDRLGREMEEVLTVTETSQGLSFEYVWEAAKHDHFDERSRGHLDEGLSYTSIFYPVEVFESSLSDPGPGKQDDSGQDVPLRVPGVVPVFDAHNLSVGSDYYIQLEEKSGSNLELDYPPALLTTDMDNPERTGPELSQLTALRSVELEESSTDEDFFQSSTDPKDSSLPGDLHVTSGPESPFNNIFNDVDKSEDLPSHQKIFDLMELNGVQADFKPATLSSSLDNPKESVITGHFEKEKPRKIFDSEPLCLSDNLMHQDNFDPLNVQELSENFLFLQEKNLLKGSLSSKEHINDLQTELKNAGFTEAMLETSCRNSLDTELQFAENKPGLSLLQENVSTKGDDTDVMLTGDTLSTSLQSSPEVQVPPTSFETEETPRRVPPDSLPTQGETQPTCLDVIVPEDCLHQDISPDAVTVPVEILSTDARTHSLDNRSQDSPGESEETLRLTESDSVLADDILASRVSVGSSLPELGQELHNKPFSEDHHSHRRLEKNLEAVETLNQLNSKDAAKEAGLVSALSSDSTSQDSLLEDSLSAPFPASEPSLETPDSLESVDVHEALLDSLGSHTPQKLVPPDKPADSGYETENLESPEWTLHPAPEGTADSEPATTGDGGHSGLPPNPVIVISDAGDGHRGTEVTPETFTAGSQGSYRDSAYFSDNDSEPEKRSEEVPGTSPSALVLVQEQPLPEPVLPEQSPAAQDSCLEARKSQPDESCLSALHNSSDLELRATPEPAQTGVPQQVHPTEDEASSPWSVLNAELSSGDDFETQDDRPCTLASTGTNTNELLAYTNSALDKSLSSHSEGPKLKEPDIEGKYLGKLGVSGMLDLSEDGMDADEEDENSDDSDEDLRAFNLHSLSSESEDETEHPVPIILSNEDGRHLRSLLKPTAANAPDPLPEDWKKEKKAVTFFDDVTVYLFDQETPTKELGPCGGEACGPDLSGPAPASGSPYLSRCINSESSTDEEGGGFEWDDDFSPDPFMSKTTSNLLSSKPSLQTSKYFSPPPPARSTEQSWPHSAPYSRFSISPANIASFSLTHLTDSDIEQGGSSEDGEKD
UniProt P28482, whole entry: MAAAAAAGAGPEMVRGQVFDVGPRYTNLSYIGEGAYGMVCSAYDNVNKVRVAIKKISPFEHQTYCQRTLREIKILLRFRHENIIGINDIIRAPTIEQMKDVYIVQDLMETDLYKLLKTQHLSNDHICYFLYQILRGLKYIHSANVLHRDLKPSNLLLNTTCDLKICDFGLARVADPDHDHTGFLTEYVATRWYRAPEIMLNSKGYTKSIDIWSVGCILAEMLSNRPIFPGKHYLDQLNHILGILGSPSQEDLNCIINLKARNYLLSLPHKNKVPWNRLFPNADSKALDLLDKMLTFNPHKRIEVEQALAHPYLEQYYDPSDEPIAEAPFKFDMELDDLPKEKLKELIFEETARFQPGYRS
UniProt P31152, whole entry: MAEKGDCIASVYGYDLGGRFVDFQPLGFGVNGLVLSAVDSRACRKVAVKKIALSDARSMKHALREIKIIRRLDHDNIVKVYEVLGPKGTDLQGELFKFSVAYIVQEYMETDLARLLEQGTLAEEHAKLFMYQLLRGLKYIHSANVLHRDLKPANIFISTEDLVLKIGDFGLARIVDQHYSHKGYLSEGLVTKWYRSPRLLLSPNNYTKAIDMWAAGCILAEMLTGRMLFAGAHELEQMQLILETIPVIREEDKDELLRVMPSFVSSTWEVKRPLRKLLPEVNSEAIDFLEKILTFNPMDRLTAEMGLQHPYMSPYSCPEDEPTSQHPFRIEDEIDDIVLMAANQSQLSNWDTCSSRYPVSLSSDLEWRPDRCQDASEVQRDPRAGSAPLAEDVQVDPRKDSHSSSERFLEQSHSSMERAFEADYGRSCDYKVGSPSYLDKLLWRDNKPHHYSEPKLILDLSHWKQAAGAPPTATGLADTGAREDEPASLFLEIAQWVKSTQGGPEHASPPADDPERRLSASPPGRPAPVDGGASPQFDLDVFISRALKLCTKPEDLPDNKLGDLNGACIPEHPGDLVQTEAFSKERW
UniProt Q9BUB5: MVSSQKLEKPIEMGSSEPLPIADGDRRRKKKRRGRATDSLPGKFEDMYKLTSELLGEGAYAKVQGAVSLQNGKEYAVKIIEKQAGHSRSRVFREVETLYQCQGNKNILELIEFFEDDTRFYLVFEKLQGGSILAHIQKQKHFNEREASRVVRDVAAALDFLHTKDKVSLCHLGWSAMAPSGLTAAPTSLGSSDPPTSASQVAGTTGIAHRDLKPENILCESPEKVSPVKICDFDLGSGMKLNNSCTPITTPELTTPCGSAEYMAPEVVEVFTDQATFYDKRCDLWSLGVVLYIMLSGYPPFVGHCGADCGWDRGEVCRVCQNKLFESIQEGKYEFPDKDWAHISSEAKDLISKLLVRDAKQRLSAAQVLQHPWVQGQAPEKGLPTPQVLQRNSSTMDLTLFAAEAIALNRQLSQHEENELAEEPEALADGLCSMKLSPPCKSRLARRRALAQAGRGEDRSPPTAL

Experiments:
Assay in all cases: number of time points (of 5) at which kinase-Nluc abundance scored as decreased, DMSO-normalised (count); higher = more persistent destabilization
Conditions in all cases: K562; 2-18 h
FLT3 = FLT3 (UniProt P36888)
FYN = FYN (UniProt P06241)
GSK3A = GSK3A (UniProt P49840)
HER2 = HER2 (UniProt P04626)
INSRR = INSRR (UniProt P14616)
IRAK3 = IRAK3 (UniProt Q9Y616)
JAK1 = JAK1 (UniProt P23458)
LCK = LCK (UniProt P06239)
LIMK1 = LIMK1 (UniProt P53667)
LIMK2 = LIMK2 (UniProt P53671)
LMTK2 = LMTK2 (UniProt Q8IWU2)
LYN = LYN (UniProt P07948)
MAP2K1 = MAP2K1 (UniProt Q02750)
MAP2K2 = MAP2K2 (UniProt P36507)
MAP4K2 = MAP4K2 (UniProt Q12851)
MAPK1 = MAPK1 (UniProt P28482)
MAPK4 = MAPK4 (UniProt P31152)
MAPKAPK2 = MAPKAPK2 (UniProt P49137)
MKNK1 = MKNK1 (UniProt Q9BUB5)

Row | Structure (SMILES) | number of time points (FLT3) | number of time points (FYN) | number of time points (GSK3A) | number of time points (HER2) | number of time points (INSRR) | number of time points (IRAK3) | number of time points (JAK1) | number of time points (LCK) | number of time points (LIMK1) | number of time points (LIMK2) | number of time points (LMTK2) | number of time points (LYN) | number of time points (MAP2K1) | number of time points (MAP2K2) | number of time points (MAP4K2) | number of time points (MAPK1) | number of time points (MAPK4) | number of time points (MAPKAPK2) | number of time points (MKNK1)
1 | CCCCNc1ncc2c(-c3ccc(F)cc3)nn(CC3CCC(N)CC3)c2n1 (configuration not stated) (2.5 µM) | 0 | 1 | 0 | 0 | 2 | 0 | 0 | 0 | 0 | 0 | 0 | 0 | 0 | 0 | 0 | 0 | 0 | 0 | 4
2 | Nc1ccc(Sc2nc3ccccc3s2)c(Cl)c1 [KRAS inhibitor-9] (10 µM) | 0 | 0 | 0 | 0 | 0 | 0 | 0 | 0 | 0 | 0 | 0 | 0 | 0 | 0 | 0 | 0 | 0 | 0 | 0
3 | Cn1cc(C2=C(c3ccc(Cl)cc3Cl)C(=O)NC2=O)c2ccccc21 (10 µM) | 0 | 0 | 0 | 0 | 0 | 0 | 0 | 0 | 0 | 0 | 0 | 0 | 0 | 0 | 0 | 0 | 0 | 0 | 0
4 | Cc1cccc(CC(=O)N2CCc3c2ccc(-c2cn(C)c4ncnc(N)c24)c3F)n1 (10 µM) | 0 | 0 | 0 | 3 | 0 | 0 | 0 | 0 | 0 | 0 | 0 | 0 | 0 | 0 | 0 | 0 | 0 | 0 | 0
5 | N#CC(=C(/N)Sc1ccccc1N)/C(C#N)=C(\N)Sc1ccccc1N (10 µM) | 0 | 0 | 0 | 1 | 4 | 0 | 0 | 0 | 0 | 0 | 0 | 0 | 0 | 0 | 0 | 0 | 0 | 0 | 0
6 | N#Cc1cc(-c2ccnc(Nc3ccc(N4CCOCC4)cc3)n2)ccc1OC1CCOCC1 (10 µM) | 0 | 0 | 0 | 5 | 0 | 0 | 0 | 0 | 0 | 0 | 0 | 0 | 0 | 0 | 0 | 0 | 0 | 0 | 0
7 | CCOc1cc(N2CCC(O)CC2)ccc1Nc1ncc2c(n1)N(C1CCCC1)CCC(=O)N2C (2.5 µM) | 0 | 0 | 0 | 0 | 0 | 0 | 0 | 0 | 0 | 0 | 0 | 0 | 0 | 0 | 0 | 0 | 0 | 0 | 0
8 | COC(=O)N1CCN(C2CCC(Nc3nc(Nc4cnn(C)c4)nc4ccc(CC#N)nc34)CC2)CC1 (configuration not stated) (10 µM) | 0 | 0 | 0 | 0 | 0 | 0 | 0 | 0 | 0 | 0 | 0 | 0 | 0 | 0 | 0 | 0 | 0 | 0 | 0
9 | Nc1ccc(O)c(C(=O)O)c1 [5-Aminosalicylic Acid] (10 µM) | 0 | 0 | 0 | 0 | 0 | 0 | 0 | 0 | 0 | 0 | 0 | 0 | 0 | 0 | 0 | 0 | 0 | 0 | 0
10 | CN(C)CCOc1cc(-c2cn[nH]c2)ccc1NC(=O)C1COc2ccccc2O1 (configuration not stated) (10 µM) | 0 | 0 | 0 | 0 | 0 | 0 | 0 | 0 | 0 | 0 | 0 | 0 | 0 | 0 | 0 | 0 | 0 | 0 | 0
11 | Cc1cc(N2CCOCC2)ccc1Nc1nc(NC2CCCCC2)c2[nH]cnc2n1 (10 µM) | 0 | 0 | 0 | 0 | 0 | 0 | 0 | 0 | 0 | 0 | 0 | 0 | 0 | 0 | 0 | 0 | 0 | 0 | 0
12 | CN(C)CCn1cc2cc(NC(=O)c3cccc(C(F)(F)F)n3)c(C(C)(C)O)cc2n1 (10 µM) | 0 | 0 | 0 | 0 | 0 | 0 | 0 | 0 | 0 | 0 | 0 | 0 | 0 | 0 | 0 | 0 | 0 | 0 | 0
13 | C=CC(=O)N1CCC(c2ccc(C(N)=O)c(-c3ccc(Oc4ccccc4)cc3)n2)CC1 [Orelabrutinib] (2.5 µM) | 0 | 0 | 0 | 0 | 0 | 0 | 0 | 0 | 0 | 0 | 0 | 0 | 0 | 0 | 0 | 0 | 0 | 0 | 0

Whole records, looked up by structure. Values in the order: number of time points (FLT3) | number of time points (FYN) | number of time points (GSK3A) | number of time points (HER2) | number of time points (INSRR) | number of time points (IRAK3) | number of time points (JAK1) | number of time points (LCK) | number of time points (LIMK1) | number of time points (LIMK2) | number of time points (LMTK2) | number of time points (LYN) | number of time points (MAP2K1) | number of time points (MAP2K2) | number of time points (MAP4K2) | number of time points (MAPK1) | number of time points (MAPK4) | number of time points (MAPKAPK2) | number of time points (MKNK1)
N#CC(=C(/N)Sc1ccccc1N)/C(C#N)=C(\N)Sc1ccccc1N (10 µM) is entered as 0 | 0 | 0 | 1 | 4 | 0 | 0 | 0 | 0 | 0 | 0 | 0 | 0 | 0 | 0 | 0 | 0 | 0 | 0
CCOc1cc(N2CCC(O)CC2)ccc1Nc1ncc2c(n1)N(C1CCCC1)CCC(=O)N2C (2.5 µM) is entered as 0 | 0 | 0 | 0 | 0 | 0 | 0 | 0 | 0 | 0 | 0 | 0 | 0 | 0 | 0 | 0 | 0 | 0 | 0
